Results reported in PMC10104862.
Results are given in words; binding and its absence hold for the method and conditions named. Binding seen in cells or lysates may run through a third protein. A yes stands for co-enrichment or nearness to the bait. Other partners may have been found. For some assays here: Sequences can lack the tags named with a protein.

Chains of the proteins cited; added tags and fusions are not shown.
UniProt Q15554: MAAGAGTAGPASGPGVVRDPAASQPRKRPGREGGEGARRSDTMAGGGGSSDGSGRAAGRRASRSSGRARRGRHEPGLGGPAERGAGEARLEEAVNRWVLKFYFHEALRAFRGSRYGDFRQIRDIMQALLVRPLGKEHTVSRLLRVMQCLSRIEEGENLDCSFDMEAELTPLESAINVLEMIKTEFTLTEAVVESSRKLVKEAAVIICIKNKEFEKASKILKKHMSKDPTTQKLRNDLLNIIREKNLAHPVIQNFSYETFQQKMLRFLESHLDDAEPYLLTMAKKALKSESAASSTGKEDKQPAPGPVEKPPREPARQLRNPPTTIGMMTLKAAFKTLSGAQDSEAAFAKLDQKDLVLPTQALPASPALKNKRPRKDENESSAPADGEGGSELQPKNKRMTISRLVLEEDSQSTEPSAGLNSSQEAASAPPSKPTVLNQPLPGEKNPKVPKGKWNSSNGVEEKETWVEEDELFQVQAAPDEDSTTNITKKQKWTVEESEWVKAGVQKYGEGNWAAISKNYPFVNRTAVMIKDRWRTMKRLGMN
UniProt Q9NR30: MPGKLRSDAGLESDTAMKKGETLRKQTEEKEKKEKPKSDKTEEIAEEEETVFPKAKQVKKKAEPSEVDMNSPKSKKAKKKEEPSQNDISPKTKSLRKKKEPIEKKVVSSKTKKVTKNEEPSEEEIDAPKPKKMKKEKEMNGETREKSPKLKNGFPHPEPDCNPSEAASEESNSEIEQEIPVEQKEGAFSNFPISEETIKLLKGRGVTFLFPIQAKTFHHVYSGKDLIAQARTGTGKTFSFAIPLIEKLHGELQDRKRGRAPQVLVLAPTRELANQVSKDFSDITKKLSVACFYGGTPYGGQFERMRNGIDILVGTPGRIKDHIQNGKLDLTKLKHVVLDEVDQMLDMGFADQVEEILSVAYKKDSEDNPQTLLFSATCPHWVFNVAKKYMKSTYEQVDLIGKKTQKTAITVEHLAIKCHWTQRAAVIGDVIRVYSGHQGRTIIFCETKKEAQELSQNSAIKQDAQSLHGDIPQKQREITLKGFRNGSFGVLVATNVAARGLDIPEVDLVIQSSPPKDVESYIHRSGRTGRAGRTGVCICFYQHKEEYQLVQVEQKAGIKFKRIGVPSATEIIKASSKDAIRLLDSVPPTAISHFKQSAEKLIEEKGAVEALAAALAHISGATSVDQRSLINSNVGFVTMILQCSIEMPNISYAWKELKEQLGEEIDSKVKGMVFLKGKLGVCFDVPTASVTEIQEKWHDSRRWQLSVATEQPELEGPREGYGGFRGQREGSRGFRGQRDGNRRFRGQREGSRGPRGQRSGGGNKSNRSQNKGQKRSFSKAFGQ
UniProt P78527: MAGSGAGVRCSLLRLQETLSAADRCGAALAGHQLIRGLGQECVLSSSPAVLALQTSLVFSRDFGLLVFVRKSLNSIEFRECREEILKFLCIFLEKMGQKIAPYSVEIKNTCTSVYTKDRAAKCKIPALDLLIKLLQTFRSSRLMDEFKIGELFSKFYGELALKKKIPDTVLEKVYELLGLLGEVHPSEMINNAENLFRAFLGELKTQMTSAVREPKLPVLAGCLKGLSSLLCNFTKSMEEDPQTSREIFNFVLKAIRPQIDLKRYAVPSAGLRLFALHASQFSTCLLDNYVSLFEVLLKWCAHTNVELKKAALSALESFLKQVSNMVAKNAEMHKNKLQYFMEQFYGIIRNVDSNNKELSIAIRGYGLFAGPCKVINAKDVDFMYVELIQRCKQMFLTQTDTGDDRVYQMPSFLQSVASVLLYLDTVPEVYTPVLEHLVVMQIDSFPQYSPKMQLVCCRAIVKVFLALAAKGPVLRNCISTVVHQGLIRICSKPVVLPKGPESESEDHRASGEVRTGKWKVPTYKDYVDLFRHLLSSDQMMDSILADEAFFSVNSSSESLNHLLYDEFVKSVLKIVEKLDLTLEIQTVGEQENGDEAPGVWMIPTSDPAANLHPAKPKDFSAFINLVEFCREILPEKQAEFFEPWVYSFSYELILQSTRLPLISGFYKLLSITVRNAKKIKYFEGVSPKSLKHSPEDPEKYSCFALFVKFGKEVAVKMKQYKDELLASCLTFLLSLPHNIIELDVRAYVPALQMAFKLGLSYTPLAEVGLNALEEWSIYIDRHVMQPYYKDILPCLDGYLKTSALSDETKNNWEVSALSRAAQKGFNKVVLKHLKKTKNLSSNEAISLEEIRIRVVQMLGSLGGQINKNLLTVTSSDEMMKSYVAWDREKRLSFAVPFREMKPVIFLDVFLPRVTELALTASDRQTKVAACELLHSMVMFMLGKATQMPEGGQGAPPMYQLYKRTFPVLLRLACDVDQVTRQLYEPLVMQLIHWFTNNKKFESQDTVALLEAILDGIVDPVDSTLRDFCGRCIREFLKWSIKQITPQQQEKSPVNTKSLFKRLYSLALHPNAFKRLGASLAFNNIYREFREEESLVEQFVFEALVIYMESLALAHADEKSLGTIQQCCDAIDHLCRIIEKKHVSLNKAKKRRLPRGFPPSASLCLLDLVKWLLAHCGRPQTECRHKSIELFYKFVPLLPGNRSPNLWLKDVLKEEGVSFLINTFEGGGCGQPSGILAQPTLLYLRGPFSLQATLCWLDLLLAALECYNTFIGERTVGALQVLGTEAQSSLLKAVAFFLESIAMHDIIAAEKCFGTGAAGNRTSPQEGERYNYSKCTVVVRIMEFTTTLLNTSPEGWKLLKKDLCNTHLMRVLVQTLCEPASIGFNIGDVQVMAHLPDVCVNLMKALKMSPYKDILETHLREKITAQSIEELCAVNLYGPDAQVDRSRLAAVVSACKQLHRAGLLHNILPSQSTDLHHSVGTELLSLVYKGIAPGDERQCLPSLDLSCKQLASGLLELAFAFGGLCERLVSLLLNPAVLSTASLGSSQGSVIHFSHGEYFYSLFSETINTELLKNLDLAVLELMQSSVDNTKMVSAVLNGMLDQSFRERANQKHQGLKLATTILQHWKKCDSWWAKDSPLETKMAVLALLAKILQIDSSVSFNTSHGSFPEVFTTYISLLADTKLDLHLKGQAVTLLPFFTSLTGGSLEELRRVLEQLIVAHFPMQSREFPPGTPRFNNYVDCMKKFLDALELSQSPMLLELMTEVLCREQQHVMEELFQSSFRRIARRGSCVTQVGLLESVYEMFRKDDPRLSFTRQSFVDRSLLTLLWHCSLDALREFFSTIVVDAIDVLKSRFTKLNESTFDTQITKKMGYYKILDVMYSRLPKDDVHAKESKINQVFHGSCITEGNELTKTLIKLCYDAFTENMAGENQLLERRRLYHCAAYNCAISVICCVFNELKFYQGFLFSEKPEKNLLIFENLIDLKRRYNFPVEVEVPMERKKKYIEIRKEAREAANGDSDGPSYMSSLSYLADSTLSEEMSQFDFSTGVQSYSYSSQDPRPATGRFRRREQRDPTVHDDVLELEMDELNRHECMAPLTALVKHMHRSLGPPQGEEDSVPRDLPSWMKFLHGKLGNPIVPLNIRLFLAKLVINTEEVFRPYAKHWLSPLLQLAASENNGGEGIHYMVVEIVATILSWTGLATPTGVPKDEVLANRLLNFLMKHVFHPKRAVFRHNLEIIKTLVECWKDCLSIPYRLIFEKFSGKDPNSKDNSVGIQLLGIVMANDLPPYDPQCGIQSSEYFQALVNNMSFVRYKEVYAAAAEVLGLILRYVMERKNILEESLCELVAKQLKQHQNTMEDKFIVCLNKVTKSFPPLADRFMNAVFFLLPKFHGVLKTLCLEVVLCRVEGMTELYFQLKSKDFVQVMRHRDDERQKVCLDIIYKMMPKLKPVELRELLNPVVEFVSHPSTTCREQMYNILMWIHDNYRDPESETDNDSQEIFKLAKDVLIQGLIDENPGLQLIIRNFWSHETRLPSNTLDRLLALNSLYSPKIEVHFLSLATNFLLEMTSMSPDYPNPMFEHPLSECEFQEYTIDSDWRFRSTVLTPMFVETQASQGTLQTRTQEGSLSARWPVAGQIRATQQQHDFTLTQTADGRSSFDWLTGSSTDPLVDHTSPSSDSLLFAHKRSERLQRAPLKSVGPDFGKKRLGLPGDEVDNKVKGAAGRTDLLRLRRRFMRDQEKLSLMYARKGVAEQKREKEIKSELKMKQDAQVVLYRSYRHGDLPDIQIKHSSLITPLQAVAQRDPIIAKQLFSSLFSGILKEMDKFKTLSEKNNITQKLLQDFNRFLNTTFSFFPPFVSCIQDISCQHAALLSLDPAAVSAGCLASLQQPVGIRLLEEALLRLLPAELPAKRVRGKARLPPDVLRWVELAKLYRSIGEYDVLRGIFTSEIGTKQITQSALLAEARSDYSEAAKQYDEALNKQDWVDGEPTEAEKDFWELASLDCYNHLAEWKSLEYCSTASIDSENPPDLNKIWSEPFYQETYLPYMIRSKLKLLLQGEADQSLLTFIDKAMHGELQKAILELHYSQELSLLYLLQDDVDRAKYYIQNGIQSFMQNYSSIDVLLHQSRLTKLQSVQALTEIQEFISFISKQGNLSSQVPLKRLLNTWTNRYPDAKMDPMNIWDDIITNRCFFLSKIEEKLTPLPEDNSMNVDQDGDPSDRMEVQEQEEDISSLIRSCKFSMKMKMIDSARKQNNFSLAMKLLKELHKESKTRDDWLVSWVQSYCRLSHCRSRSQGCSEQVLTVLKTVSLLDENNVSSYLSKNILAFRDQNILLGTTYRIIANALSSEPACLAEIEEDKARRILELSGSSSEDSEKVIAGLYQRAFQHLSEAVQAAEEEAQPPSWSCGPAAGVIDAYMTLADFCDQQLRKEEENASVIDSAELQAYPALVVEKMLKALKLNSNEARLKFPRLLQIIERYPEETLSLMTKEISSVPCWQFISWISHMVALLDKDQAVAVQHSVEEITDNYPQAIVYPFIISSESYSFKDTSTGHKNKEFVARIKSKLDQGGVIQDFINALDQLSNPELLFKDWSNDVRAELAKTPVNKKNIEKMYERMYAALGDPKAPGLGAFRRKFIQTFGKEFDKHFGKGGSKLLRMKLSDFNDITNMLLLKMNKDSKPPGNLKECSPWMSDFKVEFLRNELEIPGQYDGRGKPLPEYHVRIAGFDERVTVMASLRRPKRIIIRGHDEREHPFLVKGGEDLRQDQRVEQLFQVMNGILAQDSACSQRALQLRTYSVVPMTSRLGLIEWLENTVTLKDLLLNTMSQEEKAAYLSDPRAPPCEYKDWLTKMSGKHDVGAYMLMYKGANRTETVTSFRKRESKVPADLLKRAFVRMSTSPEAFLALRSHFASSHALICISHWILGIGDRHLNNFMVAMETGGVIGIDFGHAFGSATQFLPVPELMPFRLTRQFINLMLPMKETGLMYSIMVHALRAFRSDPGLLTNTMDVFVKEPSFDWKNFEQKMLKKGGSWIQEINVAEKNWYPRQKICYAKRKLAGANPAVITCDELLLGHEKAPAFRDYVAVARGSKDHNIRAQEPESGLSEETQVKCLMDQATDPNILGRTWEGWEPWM

How the values were obtained:
[1] = molecular target: Flag-TRF2 (Telomeric repeat-binding factor 2), wild type (not stated (human or mouse cDNA cloned)) (UniProt Q15554); assay: affinity purification with mass spectrometry; IP-MS with Flag-TRF2 and Flag-vector as baits; one representative experiment
[2] = molecular target: GST-RAP1^WT (Repressor/activator protein 1) (UniProt Q9NYB0); assay: affinity purification with mass spectrometry; GST pull-down from 293F cell lysates with GST-RAP1^WT and GST-RAP1^ΔBRCT as baits, then mass spectrometry; only the target purified

Substance | binding [1] | binding [2]
DDX21, DEAD-box RNA helicase (endogenous, found by IP-MS) (from UniProt Q9NR30 1-783) | binds | –
PRKDC (endogenous, 293F lysate) (from UniProt P78527 1-4128) | – | binds
